The source of these data is US12414996B2, “Organic anion transporting peptide-based cancer imaging and therapy” (Da Zen Theranostics, Inc., priority 2014, dated 2025).

The structures appear in SMILES notation.

The test system of this experiment is MCF-7. Briefly: Tumor cell growth inhibition IC50, MCF-7. It is filed as cell-based. To be noted: Breast Cancer cell line MCF-7; read-out: Half maximal inhibitory concentration (IC50) MCF-7. The text has this: In addition to DZ-1-Gem, some agents of the invention may include other antitumor active moieties, such as cisplatin. For example, the tumor cell growth inhibition activities of DZ-1 linked with cisplatin (“DZ-1-cisplatin”) were compared with those of cisplatin alone in various tumor cells, including prostate, breast, renal, kidney, and lung cancer cell lines.

As for `N.N.[Cl][Pt][Cl]` [Cisplatin, reference compound], the IC50 came out at 15 µM.
